Measured values reported in patent US12595239B2, “Substituted isoxazoline derivatives” (BASF SE, priority 2021, dated 2026).
Some results were stated once for a whole list of compounds, not compound by compound. At least one compound was matched to its structure with a doubt left.

Legend:
Type in all cases: in vivo
Anthonomus grandis = experiment: B.1 Boll weevil (Anthonomus grandis), 96-well microtiter plate diet test; details: 2500 ppm; egg and larval mortality, 5 days
Dichromothrips corbetti = experiment: B.7 Orchid Thrips, floral-immersion test; details: 300 ppm; adult thrips, 72 hours after treatment
How it was run: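 Orchid petals were dipped in compound diluted in 1:1 acetone:water with 0.01% v/v Kinetic, dried, then sealed with about 20 lab-colony adult thrips. Arenas were held in the dark at about 28 °C, and percent mortality was scored 72 h after treatment.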

Plutella xylostella = experiment: B.6 Diamond Back Moth, cabbage leaf disc dip test; details: 300 ppm; 3rd instar larvae, 72 hours after treatment
How it was run: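 Cabbage leaf discs were dipped in compound in 1:1 water:acetone with 0.01% surfactant, air-dried, then infested with ten 3rd instar larvae. Mortality read at 72 h after treatment, with feeding damage scored on a 0–100% scale.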

Spodoptera eridania = experiment: B.11 Southern Armyworm 2nd instar larvae, lima bean foliar spray test; details: 300 ppm, 4 days after treatment
Protocol: The active compounds were formulated by a Tecan liquid handler in 100% cyclohexanone as a 10′000 ppm solution supplied in tubes. The 10′000 ppm solution was serially diluted in 100% cyclohexanone to make interim solutions. These served as stock solutions for which final dilutions were made by the Tecan in 50% acetone:50% water (v/v) into 10 or 20 ml glass vials. A nonionic surfactant (Kinetic®) was included in the solution at a volume of 0.01% (v/v). The vials were then inserted into an automated electrostatic sprayer equipped with an atomizing nozzle for application to plants/insects. Lima bean plants (variety Sieva) were grown 2 plants to a pot and selected for treatment at the 1st true leaf stage. Test solutions were sprayed onto the foliage by an automated electrostatic plant sprayer equipped with an atomizing spray nozzle. The plants were dried in the sprayer fume hood and then removed from the sprayer. Each pot was placed into perforated plastic bags with a zip closure. Ten to 11 armyworm larvae were placed into the bag and the bags zipped closed. Test plants were maintained in a growth room at about 25° C. and about 20-40% relative humidity for 4 days, avoiding direct exposure to fluorescent light (14:10 light:dark photo-period) to prevent trapping of heat inside the bags. Mortality and reduced feeding were assessed 4 days after treatment, compared to untreated control plants.

Myzus persicae = experiment: B.3 Green Peach Aphid (mixed life stages), systemic artificial diet test; details: 2500 ppm; treated aphid diet, 3 days
How it was run: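 Compounds, formulated in 25% DMSO/75% water, were mixed at several concentrations into liquid artificial diet under a membrane, two replicates. 5–8 adult aphids fed on treated diet for 3 days at about 23±1 °C, 50±5% RH. Mortality and fecundity were scored visually.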

Aedes aegypti = details: 2500 ppm; larval mortality, 2 days
Heliothis virescens = experiment: B.4 Tobacco Budworm, microtiter plate diet test; details: 2500 ppm; egg and larval mortality, 5 days
How it was run: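 Compounds in 25% DMSO/75% water sprayed at various concentrations onto diet in microtiter wells each holding 15-25 H. virescens eggs, two replicates. Plates kept 5 days at about 28±1 °C and 80±5% relative humidity; egg and larval mortality then scored visually.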

Measured: mortality in comparison with untreated controls

CCN1OCC(NC(=O)c2cc(NC3=NOC(c4cc(Cl)cc(Cl)c4)(C(F)(F)F)C3)ccc2C(F)(F)F)C1=O (stereo not drawn) [I-107]
at least 75%: all assays above

CN(C1=NOC(c2cc(Cl)cc(Cl)c2)(C(F)(F)F)C1)c1ccc(Cl)c(C(=O)Nc2ccc(=O)n(C)c2)c1 (stereo not drawn) [I-127]
at least 75%: all assays above

O=C(Nc1ccc(F)cc1C(F)(F)F)c1cc(NC2=NOC(c3ccc(F)c(Cl)c3)(C(F)(F)F)C2)ccc1Cl (stereo not drawn) [I-56]
not listed: Aedes aegypti
at least 75%: all other assays above

O=C(NC1(C(F)F)CC1)c1cc(NC2=NOC(c3ccc(F)c(Cl)c3)(C(F)(F)F)C2)ccc1Cl (stereo not drawn) [I-33]
at least 75%: all assays above

N#CC1(NC(=O)c2cc(NC3=NOC(c4cc(Cl)cc(Cl)c4)(C(F)(F)F)C3)cnc2Cl)CC1 (stereo not drawn) [I-81]
not listed: Aedes aegypti
at least 75%: all other assays above

O=C(NC1CC(F)(F)C1)c1cc(NC2=NOC(c3ccc(F)c(Cl)c3)(C(F)(F)F)C2)ccc1Cl (stereo not drawn) [I-31]
at least 75%: all assays above

N#CC1(NC(=O)c2cc(NC3=NOC(c4cc(Cl)cc(Cl)c4)(C(F)(F)F)C3)ccc2OC(F)F)CC1 (stereo not drawn) [I-95]
at least 75%: all assays above

O=C(Nc1ncc(F)cc1F)c1cc(NC2=NOC(c3cc(Cl)cc(Cl)c3)(C(F)(F)F)C2)ccc1OC(F)(F)F (stereo not drawn) [I-167]
not listed: Aedes aegypti
at least 75%: all other assays above

O=C(Nc1ccc(F)c(NC(=O)C(F)(F)F)c1F)c1cc(NC2=NOC(c3cc(Cl)cc(Cl)c3)(C(F)(F)F)C2)ccc1Cl (stereo not drawn) [I-7]
at least 75%: all assays above

N#Cc1cc(F)ccc1NC(=O)c1cc(NC2=NOC(c3cc(Cl)c(F)c(Cl)c3)(C(F)(F)F)C2)ccc1Cl (stereo not drawn) [I-52]
not listed: Aedes aegypti
at least 75%: all other assays above

COc1ccc(NC2=NOC(c3cc(Cl)cc(Cl)c3)(C(F)(F)F)C2)cc1C(=O)NC1CC1 (stereo not drawn) [I-89]
not listed: Myzus persicae
at least 75%: all other assays above

CCOCn1cnc(C2(NC(=O)c3cc(NC4=NOC(c5cc(Cl)cc(Cl)c5)(C(F)(F)F)C4)ccc3Cl)CC2)c1 (stereo not drawn) [I-161]
not listed: Myzus persicae
at least 75%: all other assays above

O=C(NC1(c2cnoc2)CC1)c1cc(NC2=NOC(c3cc(Cl)cc(Cl)c3)(C(F)(F)F)C2)ccc1Cl (stereo not drawn) [I-163]
not listed: Myzus persicae
at least 75%: all other assays above

CCOCn1cc(C2(NC(=O)c3cc(NC4=NOC(c5cc(Cl)cc(Cl)c5)(C(F)(F)F)C4)ccc3Cl)CC2)cn1 (stereo not drawn) [I-149]
not listed: Myzus persicae
at least 75%: all other assays above

O=C(Nc1ccc(F)cc1F)c1cc(NC2=NOC(c3cc(Cl)cc(Cl)c3)(C(F)(F)F)C2)ccc1OC(F)(F)F (stereo not drawn) [I-70]
not listed: Myzus persicae
at least 75%: all other assays above

CCN1OCC(NC(=O)c2cc(NC3=NOC(c4cc(Cl)cc(Cl)c4)(C(F)(F)F)C3)ccc2OC(F)F)C1=O (stereo not drawn) [I-105]
not listed: Aedes aegypti
at least 75%: all other assays above

CCN1OC[C@@H](NC(=O)c2cc(NC3=NOC(c4cc(Cl)cc(Cl)c4)(C(F)(F)F)C3)ccc2OC)C1=O (stereo partly drawn) [I-88]
not listed: Aedes aegypti
at least 75%: all other assays above

CN(C1=NOC(c2cc(Cl)cc(Cl)c2)(C(F)(F)F)C1)c1ccc(Cl)c(C(=O)NC2(c3ccncc3)CC2)c1 (stereo not drawn) [I-138]
not listed: Anthonomus grandis
at least 75%: all other assays above
